Source: PubChem BioAssay AID686938 (Drosophila RNAi Screening Center, 2013)

Test: 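Fly genes required for calcium entry once internal stores are emptied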 (primary screen)
System: Drosophila S2R+ cells
Reagents: long dsRNA against Drosophila genes, about 0.25 µg dsRNA per well, roughly 10,000 cells
Time to read-out: 5 days of knock-down before the calcium assay
Conditions: thapsigargin (SERCA pump blocker) to empty calcium stores; entry signal taken 4 min after adding it
Measurement: 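Duplicate raw fluo-4 intensities per well from a plate reader, at rest and four minutes after thapsigargin emptied calcium stores; entry-to-rest ratio filled for only some wells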
Scale: calcium entry signal: higher = stronger calcium signal after store depletion; entry to resting ratio: higher = more calcium entry relative to resting level; resting calcium signal: higher = higher resting calcium signal
Rule for the call: 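Called when the plate z-score of the entry-to-rest ratio, mean of duplicates, falls below −3; wells with low overall dye signal (Fmax z below −2) or more than five off-targets excluded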
Calls: active = strongly reduced calcium entry; inactive = no strong reduction
The screen tested about 23,000 reagents; shown is a random part of those that have a named target and a result. Of all reagents, 75 (0.33%) are marked active. 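Raw plate signals without normalisation; calls rest on plate z-scores that were not deposited; ratio present for only 364 wells.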 Not stated in the record: the dose of the treatment.

| predicted target | DRSC id | calcium entry signal, replicate 1 (fluorescence units) | calcium entry signal, replicate 2 (fluorescence units) | entry to resting ratio | resting calcium signal, replicate 1 (fluorescence units) | resting calcium signal, replicate 2 (fluorescence units) | call |
| --- | --- | --- | --- | --- | --- | --- | --- |
| CG42296 | DRSC00394 | 3.89e7 | 3.76e7 | – | 1.81e7 | 1.74e7 | inactive |
| Ac3 | DRSC03692 | 3.83e7 | – | – | 1.80e7 | – | inactive |
| pirk | DRSC04269 | 4.05e7 | 4.70e7 | – | 1.92e7 | 2.09e7 | inactive |
| rec | DRSC14998 | 2.62e7 | 4.74e7 | – | 1.36e7 | 6.07e7 | inactive |
| rec | DRSC15656 | 2.89e7 | 4.72e7 | – | 1.43e7 | 6.08e7 | inactive |
| rdgBbeta | DRSC07672 | 4.30e7 | 5.60e7 | – | 1.87e7 | 2.73e7 | inactive |
| CG4363 | DRSC04465 | 4.01e7 | 5.87e7 | – | 1.90e7 | 2.41e7 | inactive |
| CG12194 | DRSC00345 | 2.64e7 | 2.91e7 | – | 1.40e7 | 1.28e7 | inactive |
| PolZ2 | DRSC12325 | 4.86e7 | 3.60e7 | – | 2.32e7 | 1.79e7 | inactive |
| CG14483 | DRSC06455 | 4.99e7 | 6.75e7 | – | 2.08e7 | 2.99e7 | inactive |
| CG6028 | DRSC15951 | 3.33e7 | 3.51e7 | – | 1.64e7 | 1.61e7 | inactive |
| Smg5 | DRSC03124 | 3.77e7 | – | – | 2.00e7 | – | inactive |
| Dlip2 | DRSC12346 | 3.13e7 | 6.15e7 | – | 1.59e7 | 2.62e7 | inactive |
| ND-49L | DRSC14437 | 2.98e7 | 5.21e7 | – | 1.71e7 | 2.25e7 | inactive |
| CG16782 | DRSC18118 | 3.39e7 | 6.85e7 | 2.1 | 1.60e7 | 2.64e7 | inactive |
| mthl12 | DRSC12964 | 2.45e7 | 3.41e7 | – | 1.22e7 | 1.40e7 | inactive |
| CG31523 | DRSC12009 | 2.98e7 | 4.27e7 | – | 1.72e7 | 2.01e7 | inactive |
| CG31523 | DRSC12337 | 4.25e7 | 2.82e7 | – | 1.82e7 | 1.52e7 | inactive |
| CG15296 | DRSC17983 | 3.66e7 | 5.70e7 | – | 1.79e7 | 2.61e7 | inactive |
| Mat1 | DRSC07465 | 3.75e7 | 5.53e7 | – | 1.81e7 | 3.18e7 | inactive |
| Fer2LCH | DRSC16672 | 3.11e7 | 4.96e7 | – | 1.62e7 | 2.07e7 | inactive |
| Prtl99C | DRSC15049 | 3.79e7 | 6.17e7 | – | 1.93e7 | 2.54e7 | inactive |
| Hexo1 | DRSC08663 | 3.70e7 | 2.90e7 | – | 2.04e7 | 1.49e7 | inactive |
| CG15254 | DRSC01870 | 4.36e7 | 2.97e7 | – | 1.88e7 | 1.54e7 | inactive |
| CG15254 | DRSC21765 | 3.31e7 | 3.48e7 | – | 1.89e7 | 1.66e7 | inactive |
| CG30159 | DRSC04981 | 4.06e7 | – | – | 2.05e7 | – | inactive |
| Tfb4 | DRSC00675 | 3.10e7 | 2.94e7 | – | 1.55e7 | 1.45e7 | inactive |
| fz4 | DRSC18780 | 3.52e7 | 4.66e7 | – | 1.64e7 | 2.12e7 | inactive |

Limited to “resting calcium signal, replicate 1 (fluorescence units)” (7 entries from above):
pirk [DRSC04269]	1.92e7
rec [DRSC14998]	1.36e7
rec [DRSC15656]	1.43e7
rdgBbeta [DRSC07672]	1.87e7
CG4363 [DRSC04465]	1.90e7
CG12194 [DRSC00345]	1.40e7
PolZ2 [DRSC12325]	2.32e7

Additional entries follow.
| predicted target | DRSC id | calcium entry signal, replicate 1 (fluorescence units) | calcium entry signal, replicate 2 (fluorescence units) | entry to resting ratio | resting calcium signal, replicate 1 (fluorescence units) | resting calcium signal, replicate 2 (fluorescence units) | call |
| --- | --- | --- | --- | --- | --- | --- | --- |
| CG14963 | DRSC08422 | 3.11e7 | 3.40e7 | – | 1.60e7 | 1.52e7 | inactive |
| htl | DRSC16968 | 4.21e7 | 3.65e7 | – | 1.88e7 | 1.62e7 | inactive |
| CG16926 | DRSC06637 | 2.88e7 | 3.00e7 | – | 1.35e7 | 1.48e7 | inactive |
| fzr2 | DRSC04280 | 3.38e7 | – | – | 1.80e7 | – | inactive |
| CG15099 | DRSC06528 | 2.59e7 | 2.47e7 | – | 1.21e7 | 1.23e7 | inactive |
| pkaap | DRSC01925 | 4.81e7 | 3.33e7 | – | 2.06e7 | 1.57e7 | inactive |
| Orc1 | DRSC07496 | 4.16e7 | 2.06e7 | – | 1.94e7 | 1.23e7 | inactive |
| Sps2 | DRSC03441 | 3.82e7 | 6.54e7 | – | 1.79e7 | 2.71e7 | inactive |
| CG42671 | DRSC09093 | 4.31e7 | 3.37e7 | – | 2.16e7 | 1.76e7 | inactive |
| CG42671 | DRSC10321 | 2.98e7 | 4.71e7 | – | 1.59e7 | 2.23e7 | inactive |
| CG6878 | DRSC10737 | 3.09e7 | 4.69e7 | – | 1.53e7 | 1.86e7 | inactive |
| Mtr3 | DRSC10953 | 3.17e7 | 2.09e7 | – | 1.92e7 | 1.19e7 | inactive |
| conu | DRSC07810 | 3.58e7 | 2.57e7 | – | 1.74e7 | 1.09e7 | inactive |
| Cad88C | DRSC15486 | 2.91e7 | 3.92e7 | – | 1.54e7 | 6.84e7 | inactive |
| CG42685 | DRSC01971 | 5.18e7 | 5.82e7 | – | 2.10e7 | 2.52e7 | inactive |
| CG6136 | DRSC15975 | 3.49e7 | 4.76e7 | – | 1.43e7 | 2.10e7 | inactive |
| CG15514 | DRSC15053 | 3.84e7 | 4.72e7 | – | 1.86e7 | 2.28e7 | inactive |
| CG4440 | DRSC02747 | 6.32e7 | 3.72e7 | – | 2.60e7 | 2.03e7 | inactive |
| CG4452 | DRSC10422 | 5.33e7 | 4.94e7 | – | 3.47e7 | 1.90e7 | inactive |
| Jon65Aiii | DRSC10649 | 3.53e7 | 2.68e7 | – | 2.44e7 | 1.15e7 | inactive |
| CG32276 | DRSC08027 | 3.16e7 | 2.62e7 | – | 1.50e7 | 1.29e7 | inactive |
| Antdh | DRSC20307 | 3.15e7 | 3.53e7 | – | 1.72e7 | 1.80e7 | inactive |
| mey | DRSC14468 | 4.27e7 | 4.94e7 | – | 1.82e7 | 2.09e7 | inactive |
| CG14088 | DRSC10092 | 2.83e7 | 5.05e7 | – | 1.32e7 | 1.99e7 | inactive |
| CG14868 | DRSC14991 | 3.24e7 | 2.53e7 | – | 1.64e7 | 1.33e7 | inactive |
| GlyT | DRSC04512 | 4.46e7 | 4.66e7 | – | 2.28e7 | 2.20e7 | inactive |
| COX2 (retired record) | DRSC21276 | 3.20e7 | 3.73e7 | – | 1.88e7 | 1.78e7 | inactive |
| CG9630 | DRSC16527 | 2.40e7 | 2.77e7 | – | 1.09e7 | 1.40e7 | inactive |
| CG32373 | DRSC08895 | 4.18e7 | 4.36e7 | – | 2.18e7 | 2.06e7 | inactive |
| alpha-Est7 | DRSC12619 | 4.02e7 | 3.00e7 | – | 2.08e7 | 1.51e7 | inactive |
| CG13065 | DRSC09948 | 3.24e7 | 5.57e7 | – | 1.75e7 | 2.25e7 | inactive |
| CG13096 | DRSC02198 | 2.67e7 | 3.55e7 | – | 1.39e7 | 1.65e7 | inactive |
| Gr68a | DRSC10803 | 2.27e7 | 3.62e7 | – | 1.17e7 | 1.69e7 | inactive |
| comm3 | DRSC09993 | 4.79e7 | 5.75e7 | – | 2.10e7 | 2.42e7 | inactive |
| comm3 | DRSC09994 | 4.33e7 | 5.90e7 | – | 1.94e7 | 2.48e7 | inactive |
| comm3 | DRSC09995 | 5.20e7 | 6.10e7 | – | 2.11e7 | 2.39e7 | inactive |
| CG11076 | DRSC17197 | 3.56e7 | 5.77e7 | 1.9 | 1.86e7 | 2.55e7 | inactive |
| eIF3i | DRSC03464 | 1.03e7 | – | – | 7.01e6 | – | inactive |
| Alp11 | DRSC20080 | 2.84e7 | 3.40e7 | – | 1.55e7 | 1.46e7 | inactive |
| CG32228 | DRSC22296 | 3.11e7 | 5.32e7 | – | 1.55e7 | 2.66e7 | inactive |
| Ssk | DRSC10756 | 3.03e7 | 4.36e7 | – | 1.49e7 | 3.13e7 | inactive |
| CG10877 | DRSC14274 | 3.89e7 | 4.06e7 | – | 4.16e7 | 1.94e7 | inactive |
| Mlp60A | DRSC04623 | 3.96e7 | 4.81e7 | – | 1.94e7 | 1.96e7 | inactive |
| Mlp60A | DRSC22233 | 3.24e7 | 8.43e7 | – | 1.60e7 | 3.29e7 | inactive |
| Mlp60A | DRSC22481 | 5.60e7 | 3.94e7 | – | 3.20e7 | 1.85e7 | inactive |
| CG32354 | DRSC10763 | 4.10e7 | 2.93e7 | – | 2.70e7 | 1.32e7 | inactive |
| CG32354 | DRSC10775 | 2.22e7 | 5.30e7 | – | 1.02e7 | 2.52e7 | inactive |
| CG32354 | DRSC21919 | 3.46e7 | 5.52e7 | – | 1.60e7 | 2.66e7 | inactive |
